Here are results for 1 molecule from publication PMC1184076.

Results are given in words; binding and its absence hold for the method and conditions named. Sequences can lack the tags named with a protein.

The test has as its target T1, GST-c-Jun, P05412.
T1 chain: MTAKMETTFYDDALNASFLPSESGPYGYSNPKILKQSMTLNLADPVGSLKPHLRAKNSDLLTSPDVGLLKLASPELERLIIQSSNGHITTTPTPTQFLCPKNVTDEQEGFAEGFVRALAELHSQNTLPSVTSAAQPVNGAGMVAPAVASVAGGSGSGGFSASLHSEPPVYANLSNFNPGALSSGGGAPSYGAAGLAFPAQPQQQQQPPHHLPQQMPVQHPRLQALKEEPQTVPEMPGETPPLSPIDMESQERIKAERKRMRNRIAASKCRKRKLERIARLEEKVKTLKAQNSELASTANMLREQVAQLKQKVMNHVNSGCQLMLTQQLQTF
Nature of the test: pull-down; purified GST-p53 (or GST-c-Jun) incubated with purified His-IκBα in IP buffer (25 mM Hepes pH 7.5, 75 mM KCl, 2.5 mM MgCl2, 0.1 mM EDTA, 0.15% NP-40, 1 mM DTT); glutathione Sepharose beads; autoradiography of 32P-IκBα or Western blot for IκBα; both purified. The note with it: remark: other sources report otherwise.

B1: [32P]-labeled 6xHis-tagged IκBα (His-IκBα), phosphorylated in vitro by p90rsk, P25963 1-317 (protein)
chain: MFQAAERPQEWAMEGPRDGLKKERLLDDRHDSGLDSMKDEEYEQMVKELQEIRLEPQEVPRGSEPWKQQLTEDGDSFLHLAIIHEEKALTMEVIRQVKGDLAFLNFQNNLQQTPLHLAVITNQPEIAEALLGAGCDPELRDFRGNTPLHLACEQGCLASVGVLTQSCTTPHLHSILKATNYNGHTCLHLASIHGYLGIVELLVSLGADVNAQEPCNGRTALHLAVDLQNPDLVSLLLKCGADVNRVTYQGYSPYQLTWGRPSTRIQQQLGQLTLENLQMLPESEDEESYDTESEFTEFTEDELPYDDCVFGGQRLTL
modifications: here or on the partner: 32P-phosphate put on in vitro by p90rsk; site not stated
Take B1: the binding entry is “no binding”.
